Measured values published in PubChem BioAssay AID1273 (Columbia University Molecular Screening Center, 2008).
Some of the results follow. Shown are side measurements of this screen, not its main read-out; they come without a call. Most of these compounds were active or inconclusive in the main read-out, so they are no random draw.

Assay: inhibitors of insulin promoter-driven GFP, primary screen, imaging, TRM-6 cells (human fetal islet line), eGFP reporter, cell count (AID 1273;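 further: cells exposed to compound for 48 h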)
Details: measured here: cell count, toxicity, at 2 µM, reporter expression induced with tamoxifen
With `CCC(C)Sc1nc2ccccc2c(=O)[nH]1` (stereo not drawn) the normalized cell count was 129%.
With `O=C(NCc1ccc2c(c1)OCO2)C1(S(=O)(=O)c2ccccc2)CC1` the normalized cell count was 155%.
With `COc1ccc(NC(=O)C(c2ccc(OC)cc2)N(C)C(=O)CNC(C)=O)cc1` (stereo not drawn) the normalized cell count was 101%.
Compound `Cc1nc(NCCc2ccccc2)c2oc3ccccc3c2n1` has a normalized cell count of 150%.
In the case of `CCc1nc2c(cnn2-c2ccc(Cl)cc2)c(=O)n1-c1ccc(OC)cc1`, the normalized cell count is reported as 48.8%.
Compound `c1ccc(-c2nc(-c3ccccn3)no2)cc1` has a normalized cell count of 126%.
`CC(C(=O)Nc1ccc(S(=O)(=O)N2CCOCC2)cc1)N(c1ccccc1)S(C)(=O)=O` (stereo not drawn) showed a normalized cell count of 82.5%.
`Cc1ccccc1N1C(=O)C(Cl)=C(N2CCN(c3ccccc3)CC2)C1=O` gave a normalized cell count of 73%.
For `Cc1nn(C)cc1CNC(=O)c1cccc(Br)c1`, the normalized cell count was 137%.
Compound `Cc1cc(C(=O)NCCCN(C)C)c2ccccc2n1` has a normalized cell count of 82.5%.
With `O=C(Nc1nc(-c2ccc(S(=O)(=O)N3CCCCCC3)cc2)cs1)c1cccs1` the normalized cell count was 74.3%.
For `CC(C)C(=O)c1cc2c(cc1NC(=O)c1cccs1)OCCO2`, the normalized cell count was 86.1%.
In the case of `Cc1sc2ncnc(SCC(=O)NC3CC3)c2c1C`, the normalized cell count is reported as 0.46%.
Work on `CCc1nnc(NS(=O)(=O)c2ccc(NC(=O)c3cccc(Cl)c3)cc2)s1` yielded a normalized cell count of 193%.
Work on `Cc1ccc(S(=O)(=O)NCC(=O)OCC(=O)Nc2cccc(S(=O)(=O)NC3=NCCCCC3)c2)cc1` yielded a normalized cell count of 63%.
Compound `Cc1cc2c3c(ccc(C)c3n1)N=CN2c1ccccc1` has a normalized cell count of 122%.
In the case of `O=C(NCc1ccccn1)C(=O)NCc1ccccn1`, the normalized cell count is reported as 107%.
Work on `COc1ccc(OC)c(NC(=O)CN2CCC(C(=O)c3ccc(C)cc3)CC2)c1` yielded a normalized cell count of 214%.
`COc1ccc(C(=O)NCCN2CCOCC2)cc1OC` gave a normalized cell count of 101%.
For `CC(=O)N1CCN(C(=O)c2cc(C)nc3ccccc23)CC1`, the normalized cell count was 88%.
Compound `Cc1ccnc(SCCn2c(N3CCC(C)CC3)nc3c2c(=O)n(C)c(=O)n3C)n1` has a normalized cell count of 89.7%.
For `Cc1oc2c(c1C(=O)Nc1cccc(C(=O)O)c1)CCCC2`, the normalized cell count was 121%.
In the case of `Cc1nc([N+](=O)[O-])c(Br)n1CC(=O)c1ccc(Cl)cc1`, the normalized cell count is reported as 89.5%.
Work on `COC(=O)CNC(=O)c1ccc(=O)oc1` yielded a normalized cell count of 55.9%.
Work on `COc1ccc(C2OCC3(CO2)SC(=O)NC3=O)cc1` (stereo not drawn) yielded a normalized cell count of 146%.
`O=C(Oc1ccc(N(Cc2cccs2)C2=NS(=O)(=O)c3ccccc32)cc1)c1ccccc1Cl` gave a normalized cell count of 119%.
Work on `COc1ccc(/C=N/Nc2nccnc2Cl)cc1` yielded a normalized cell count of 114%.
`COc1ccc2[nH]c3c(=O)n(N)c(C)nc3c2c1` showed a normalized cell count of 189%.
`COc1cccc(CNc2ncnc3cc(Cl)ccc23)c1` showed a normalized cell count of 223%.
`COc1ccc(-c2nc3ccccc3[nH]2)cc1` gave a normalized cell count of 139%.
With `CC1CCN(C(=O)Cc2nn(C)c(=O)c3ccccc23)CC1` the normalized cell count was 127%.
`COCC(=O)N(Cc1ccccc1)c1ccccn1` showed a normalized cell count of 75.4%.
Work on `Cc1c(-c2nc(N)nc(Nc3ccc(F)cc3)n2)oc2ccccc12` yielded a normalized cell count of 117%.
Work on `CCCn1nnnc1SCC(=O)N1CCOCC1` yielded a normalized cell count of 142%.
In the case of `CCc1nc(Nc2ccc3c(c2)OCO3)c2oc3ccccc3c2n1`, the normalized cell count is reported as 158%.
Compound `CCOC(=O)c1nn(-c2cccc(Cl)c2)c(C)c1C(C)=O` has a normalized cell count of 155%.
Compound `CCC(=O)Nc1ccc(C(=O)CSc2nc3ccccc3[nH]2)cc1` has a normalized cell count of 115%.
Work on `N#C/C(=C/c1ccc(Sc2nc3ccccc3[nH]2)o1)c1cccc(F)c1` yielded a normalized cell count of 147%.
For `CCOC(=O)N1CCN(C(=O)CCSCCc2ccncc2)CC1`, the normalized cell count was 66.7%.
Work on `Cc1ccc(/C=C/c2nc3ccccc3[nH]2)o1` yielded a normalized cell count of 141%.
In the case of `COc1ccc(C(=O)C(CN2CCOCC2)c2ccccc2)cc1` (stereo not drawn), the normalized cell count is reported as 46.3%.
For `O=[N+]([O-])c1cccc(-c2nc3ccc([N+](=O)[O-])cc3[nH]2)c1`, the normalized cell count was 168%.
`O=C1CCC(C(=O)NC2(C(=O)NC3CCCCC3)CCCCC2)N1` (stereo not drawn) showed a normalized cell count of 135%.
`Fc1ccc2nc3[nH]c4ccccc4c3nc2c1` showed a normalized cell count of 96.4%.
Work on `COc1ccccc1Cn1c(=O)c2ccccc2n2c(Sc3ncnc4sccc34)nnc12` yielded a normalized cell count of 127%.
For `O=C(CN1C(=O)CSc2ccc(S(=O)(=O)N3CCCCC3)cc21)NCc1cccnc1`, the normalized cell count was 117%.
With `Clc1ccc2c(NCc3ccco3)ncnc2c1` the normalized cell count was 132%.
Work on `COc1ccc(-c2[nH]nc3oc(=O)c(CCO)c(C)c23)cc1` yielded a normalized cell count of 169%.
`COc1ccc(-n2c(Cc3cccn3C)nnc2SCC(=O)NC2CCCC2)cc1` gave a normalized cell count of 38.6%.
Work on `NC(=O)CSc1nnc2ccc(-c3ccco3)nn12` yielded a normalized cell count of 48.4%.
Compound `CNC(=O)c1ccsc1NC(=O)c1ccc2c(c1)CCCC2` has a normalized cell count of 143%.
With `c1ccn2cc(-c3ccc4c(c3)OCCO4)nc2c1` the normalized cell count was 143%.
`CCN(CC)S(=O)(=O)c1ccc(N/N=C/c2cc(OC)ccc2O)nc1` gave a normalized cell count of 65%.
`Cn1c(=O)c2c(nc(CN3CCN(Cc4ccccc4)CC3)n2Cc2ccccc2)n(C)c1=O` gave a normalized cell count of 112%.
Compound `O=C(CC1SC2=NCCN2C1=O)Nc1ccc(Cl)cc1` (stereo not drawn) has a normalized cell count of 80.3%.
`Cc1ccc(CNC(=O)c2ccc(-n3cccc3)cc2)cc1` gave a normalized cell count of 46%.
`C=CC(O)Cc1c(C)n[nH]c1C` (stereo not drawn) showed a normalized cell count of 80.1%.
For `Cc1ccc(C2=NC3(CCCCC3)NC2=S)cc1`, the normalized cell count was 160%.
With `O=C(NCc1ccco1)c1ccc(C(F)(F)F)cc1` the normalized cell count was 57.1%.
`CCN(c1ccc(NS(=O)(=O)c2cc(Cl)ccc2Cl)cc1)C(C)C` gave a normalized cell count of 101%.
With `O=C(c1cc2ccccc2oc1=O)N1CCN(c2ncccn2)CC1` the normalized cell count was 90%.
Work on `Cc1nn(-c2ccccc2)c(Cl)c1CN(C(=O)CCl)c1ccc(Cl)cc1` yielded a normalized cell count of 0%.
Work on `COc1ccccc1-c1noc(-c2ccccc2C(=O)Nc2ccccc2)n1` yielded a normalized cell count of 73.2%.
In the case of `COc1ccc(C(=O)Nn2c(SCC(=O)c3ccc(Cl)cc3)nc3ccccc3c2=O)cc1`, the normalized cell count is reported as 64%.
`COc1ccc(OC)c(S(=O)(=O)N2CCN(c3ccccn3)CC2)c1` showed a normalized cell count of 121%.
`CC1=C(C(=O)Nc2ccccc2C)C(c2ccc(C)o2)n2c(s/c(=C/c3ccccc3)c2=O)=N1` (stereo not drawn) gave a normalized cell count of 34.6%.
Work on `C=CCSC1=C(C#N)C(c2ccccc2OCC)CC(=O)N1` (stereo not drawn) yielded a normalized cell count of 118%.
Work on `COc1ccc(-n2c(C)c(C(C)=O)c(C(C)=O)c2C)cc1OC` yielded a normalized cell count of 61.4%.
In the case of `CC(=O)Nc1nc(N2C(=O)c3ccccc3C2=O)n(-c2ccccc2)n1`, the normalized cell count is reported as 62.1%.
With `O=C(CN1CCN(c2ccc([N+](=O)[O-])cc2)CC1)Nc1nccs1` the normalized cell count was 101%.
In the case of `CCc1nnc(NC(=O)CSc2nnc(Cc3cc(=O)[nH]c(=O)[nH]3)n2-c2ccc(OC)cc2)s1`, the normalized cell count is reported as 42.2%.
In the case of `CC1Oc2ccccc2C=C1C1/C(=C(/O)c2ccccc2)C(=O)C(=O)N1CCCN(C)C` (stereo not drawn), the normalized cell count is reported as 98.9%.
`O=C(COc1ccccc1/C=C1\SC(=O)NC1=O)Nc1ccccc1` gave a normalized cell count of 38.1%.
